Assay results as given in patent US20160088853A1, “Ultraviolet Disinfection of Produce, Liquids and Surfaces” (DREXEL UNIVERSITY, priority 2013, published 2016).

Procedure: In this example, fluorescein dye was used to detect the presence of free radicals, since interactions of oxidizing free radicals with fluorescein quench the fluorescence signal intensity. A fluorescein dye solution (4 μg/L) containing 0.4% (w/v) fructose and a fluorescein dye solution (4 μg/L) without fructose (control) were exposed to UV radiation at wavelength of 254 nm.
A batch-UV processing unit (Spectronics Spectrolinker XL-1500 UV Crosslinker, Westbury, N.Y.) was used for Examples 5-10. […] Fluorescence intensity measurement noise was minimized by allowing the lamps to warm up for at least 15 minutes prior to taking measurements.
The test fluorescein solution with approximately 1 μM fluorescein was prepared in deionized water (pH 6.3) or 100 mM buffer at pH 6. […] To measure the fluorescence intensity of the solution, at each time interval, 100 μl of the sample was pipetted from the petri dish into a well of a 96-well plate optimized for fluorescence measurement. Fluorescence was measured in a Gemini XPS fluorescence micro-plate reader (Molecular Devices, Sunnyvale, Calif.) with excitation and emission wavelengths of 485 nm and 510 nm, respectively. All the fluorescence values were normalized using Eq. (1):
where I0=fluorescence intensity at time t=0 minutes and It=fluorescence intensity after ‘t’ minutes of UV exposure.

## O=C(CO)[C@@H](O)[C@H](O)[C@H](O)CO [fructose]
100 mM fructose vs 294 μM hydrogen peroxide, AUC and molarity, UV
  relative oxidation potential compared to hydrogen peroxide: approximately 0.0025

## c1ccoc1 [furan, reference compound]
132 μM furan, 12 minutes of UV exposure
  effect on relative fluorescence intensity: no effect
